The subject of the experiment is CD2F1 mice, intracerebral P388 leukemia, median survival T/C%. Put plainly: NCI In Vivo Anticancer Drug Screen. Data for tumor model P388 Leukemia (intracerebral) in CD2F1 (CDF1) mice. The note with it: T/C endpoint: median survival time, vehicle: saline, higher T/C = longer survival. As to the method:
The antitumor activity of compounds was measured in mice bearing transplantable tumors. Survival or tumor size were measured and the results are expressed as the measurement made in the treated group (T) divided by the measurement made in the vehicle treated control group (C). The tumor model used in this assay is P388 Leukemia (intracerebral) in CD2F1 (CDF1) mice

Each structure is given as a SMILES string. The list does not hold the whole screen: its compounds were picked by chemical class. Not every dose and run of a compound is shown. T/C: endpoint of the treated group in % of that of the vehicle group. Some doses have a count of surviving animals in place of a T/C: the source holds a T/C of zero for them, seemingly a mark for toxic or unscored doses. Some survivor counts are full or nearly so, which does not show that the dose was tolerated: the source hardly ever lists a survival T/C far under the control, and the zero likely stands for such cases as well. Counts of survivors are from the toxicity check (mostly the fifth day) where no day follows; animals may have died later. Schedule codes are those of the source, read here as Q, the interval in days (D) or hours (H), X, the number of doses. Some schedules carry Z or #; the key to these is not given. Where survival is the endpoint, the PubChem record calls one and a half times the control and up active, and a quarter to a half above the control has no call in these data; cut-offs in other NCI protocols can differ. Some T/C values are marked as having no survivor count here; that says nothing about deaths at the dose.

The record followed here is PubChem BioAssay AID334 (DTP/NCI, 2004).

Regarding `NC1CCCCC1.NP(=O)(O)N(CCCl)CCCl`, the T/C is, setting by setting: (dose: 33.33 mg/kg/injection, schedule: Q30MX003 (ip)) 106 % of control; (dose: 50.0 mg/kg/injection, schedule: Q30MX003 (ip)) 117 % of control; (dose: 92.0 mg/kg/injection, schedule: Q01DX001 (ip)) 107 % of control [survivor count not shown]; (dose: 140.0 mg/kg/injection, schedule: Q01DX001 (ip)) 114 % of control [survivor count not shown]. For the same compound, the survivor count was 9 of 10 on day 6 (dose: 100.0 mg/kg/injection, schedule: Q30MX003 (ip)) and 7 of 9 on day 6 (dose: 150.0 mg/kg/injection, schedule: Q30MX003 (ip)).
